Test results: the supplement of paper PMC6411743
± gives the standard deviation of the averaged measurements. The entries are a selection whose mix differs from that of the whole data set.

The chains behind the UniProt entries cited, without tags or fusion partners. Where a name states a change or a piece, a line headed by the entry shows the natural chain unless it says otherwise.
UniProt P62993, whole entry, looked up: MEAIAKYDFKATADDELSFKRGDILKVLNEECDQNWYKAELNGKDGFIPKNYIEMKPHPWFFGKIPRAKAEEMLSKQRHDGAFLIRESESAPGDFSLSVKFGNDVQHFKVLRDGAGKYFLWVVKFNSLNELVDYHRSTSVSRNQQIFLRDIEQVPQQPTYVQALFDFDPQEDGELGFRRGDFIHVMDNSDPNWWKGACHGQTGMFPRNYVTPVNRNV
UniProt Q01105, whole entry: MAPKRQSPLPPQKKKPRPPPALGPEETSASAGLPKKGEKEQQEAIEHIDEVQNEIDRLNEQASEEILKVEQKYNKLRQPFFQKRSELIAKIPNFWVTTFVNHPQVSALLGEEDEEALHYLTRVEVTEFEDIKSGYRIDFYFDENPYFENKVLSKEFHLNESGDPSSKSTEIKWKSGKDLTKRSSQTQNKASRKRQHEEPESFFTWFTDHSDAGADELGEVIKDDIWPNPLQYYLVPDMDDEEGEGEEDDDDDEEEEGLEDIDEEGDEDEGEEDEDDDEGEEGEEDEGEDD
UniProt Q00169: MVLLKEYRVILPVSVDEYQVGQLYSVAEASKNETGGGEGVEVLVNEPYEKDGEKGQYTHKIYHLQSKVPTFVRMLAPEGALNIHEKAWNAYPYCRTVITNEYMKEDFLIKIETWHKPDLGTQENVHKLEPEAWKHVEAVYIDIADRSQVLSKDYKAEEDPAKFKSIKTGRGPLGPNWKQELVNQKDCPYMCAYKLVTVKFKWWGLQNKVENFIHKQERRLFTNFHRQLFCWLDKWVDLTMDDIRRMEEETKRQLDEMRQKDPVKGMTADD
UniProt P56524: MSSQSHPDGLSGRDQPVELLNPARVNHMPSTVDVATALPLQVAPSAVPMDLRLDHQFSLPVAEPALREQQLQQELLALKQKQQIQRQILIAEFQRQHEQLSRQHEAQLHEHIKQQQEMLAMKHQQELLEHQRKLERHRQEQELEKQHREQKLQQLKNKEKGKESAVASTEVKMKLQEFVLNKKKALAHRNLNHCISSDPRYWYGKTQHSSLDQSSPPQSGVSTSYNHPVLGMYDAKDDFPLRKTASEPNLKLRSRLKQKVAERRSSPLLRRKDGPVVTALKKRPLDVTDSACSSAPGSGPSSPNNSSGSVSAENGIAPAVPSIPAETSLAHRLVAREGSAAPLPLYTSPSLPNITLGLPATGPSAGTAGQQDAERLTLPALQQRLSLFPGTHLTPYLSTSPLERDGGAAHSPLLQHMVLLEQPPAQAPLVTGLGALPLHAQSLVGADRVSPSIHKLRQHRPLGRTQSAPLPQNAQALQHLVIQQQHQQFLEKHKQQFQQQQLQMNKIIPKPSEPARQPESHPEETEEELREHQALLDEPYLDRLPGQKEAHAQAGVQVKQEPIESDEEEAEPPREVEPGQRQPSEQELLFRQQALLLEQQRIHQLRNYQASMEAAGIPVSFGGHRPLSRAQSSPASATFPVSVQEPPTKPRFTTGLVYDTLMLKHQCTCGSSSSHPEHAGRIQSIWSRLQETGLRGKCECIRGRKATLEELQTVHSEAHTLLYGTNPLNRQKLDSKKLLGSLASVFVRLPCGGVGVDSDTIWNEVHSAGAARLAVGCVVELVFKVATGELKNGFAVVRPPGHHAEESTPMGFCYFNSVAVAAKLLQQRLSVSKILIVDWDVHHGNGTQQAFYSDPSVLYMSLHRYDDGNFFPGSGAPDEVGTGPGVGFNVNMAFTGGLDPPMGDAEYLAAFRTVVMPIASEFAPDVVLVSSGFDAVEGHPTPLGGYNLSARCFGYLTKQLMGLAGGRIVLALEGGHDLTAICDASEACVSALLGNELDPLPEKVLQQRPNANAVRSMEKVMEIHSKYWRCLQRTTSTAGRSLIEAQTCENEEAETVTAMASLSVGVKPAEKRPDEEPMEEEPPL
UniProt P62877, whole entry, looked up: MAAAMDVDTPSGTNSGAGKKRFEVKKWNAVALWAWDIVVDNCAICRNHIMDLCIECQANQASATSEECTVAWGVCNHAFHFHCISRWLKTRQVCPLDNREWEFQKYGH
UniProt P57081: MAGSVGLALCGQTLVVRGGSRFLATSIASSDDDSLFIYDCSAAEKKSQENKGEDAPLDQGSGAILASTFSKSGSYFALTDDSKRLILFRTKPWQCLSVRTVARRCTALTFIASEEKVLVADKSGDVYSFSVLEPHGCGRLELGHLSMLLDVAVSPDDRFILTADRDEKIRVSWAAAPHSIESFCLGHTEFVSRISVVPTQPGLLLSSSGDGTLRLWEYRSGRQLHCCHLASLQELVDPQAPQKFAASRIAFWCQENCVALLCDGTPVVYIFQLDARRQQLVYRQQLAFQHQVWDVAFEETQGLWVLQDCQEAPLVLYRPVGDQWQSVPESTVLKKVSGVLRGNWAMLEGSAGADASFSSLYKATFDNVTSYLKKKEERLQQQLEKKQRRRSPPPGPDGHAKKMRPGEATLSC
UniProt Q01813: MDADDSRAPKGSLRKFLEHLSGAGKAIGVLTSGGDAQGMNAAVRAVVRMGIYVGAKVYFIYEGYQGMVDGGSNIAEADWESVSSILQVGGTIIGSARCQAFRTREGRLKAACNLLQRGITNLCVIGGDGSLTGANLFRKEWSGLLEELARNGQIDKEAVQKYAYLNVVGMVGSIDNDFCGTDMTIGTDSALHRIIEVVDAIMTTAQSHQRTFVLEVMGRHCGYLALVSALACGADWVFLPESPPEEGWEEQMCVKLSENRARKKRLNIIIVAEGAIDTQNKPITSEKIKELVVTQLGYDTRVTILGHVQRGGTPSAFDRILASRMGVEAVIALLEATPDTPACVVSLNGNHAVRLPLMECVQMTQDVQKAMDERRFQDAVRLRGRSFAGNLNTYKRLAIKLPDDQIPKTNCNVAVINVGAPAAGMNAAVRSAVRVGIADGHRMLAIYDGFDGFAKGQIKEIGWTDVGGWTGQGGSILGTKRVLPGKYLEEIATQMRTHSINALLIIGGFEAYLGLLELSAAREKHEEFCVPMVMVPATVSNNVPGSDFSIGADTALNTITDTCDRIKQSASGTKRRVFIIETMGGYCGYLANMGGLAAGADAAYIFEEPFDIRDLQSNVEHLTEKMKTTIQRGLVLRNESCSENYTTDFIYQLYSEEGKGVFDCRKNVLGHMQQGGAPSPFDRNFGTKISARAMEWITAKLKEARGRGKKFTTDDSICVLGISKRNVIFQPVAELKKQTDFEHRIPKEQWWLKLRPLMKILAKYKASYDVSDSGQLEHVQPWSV
UniProt P62136, whole entry: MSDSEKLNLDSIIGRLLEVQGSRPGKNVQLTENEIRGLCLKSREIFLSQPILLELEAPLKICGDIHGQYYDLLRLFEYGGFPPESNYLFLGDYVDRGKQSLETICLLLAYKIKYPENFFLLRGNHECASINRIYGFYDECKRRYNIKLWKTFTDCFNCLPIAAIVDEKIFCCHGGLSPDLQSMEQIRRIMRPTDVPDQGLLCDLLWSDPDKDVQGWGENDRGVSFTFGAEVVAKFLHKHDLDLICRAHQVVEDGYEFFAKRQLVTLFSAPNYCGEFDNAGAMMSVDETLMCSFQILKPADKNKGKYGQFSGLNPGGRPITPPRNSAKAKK
UniProt Q05D32: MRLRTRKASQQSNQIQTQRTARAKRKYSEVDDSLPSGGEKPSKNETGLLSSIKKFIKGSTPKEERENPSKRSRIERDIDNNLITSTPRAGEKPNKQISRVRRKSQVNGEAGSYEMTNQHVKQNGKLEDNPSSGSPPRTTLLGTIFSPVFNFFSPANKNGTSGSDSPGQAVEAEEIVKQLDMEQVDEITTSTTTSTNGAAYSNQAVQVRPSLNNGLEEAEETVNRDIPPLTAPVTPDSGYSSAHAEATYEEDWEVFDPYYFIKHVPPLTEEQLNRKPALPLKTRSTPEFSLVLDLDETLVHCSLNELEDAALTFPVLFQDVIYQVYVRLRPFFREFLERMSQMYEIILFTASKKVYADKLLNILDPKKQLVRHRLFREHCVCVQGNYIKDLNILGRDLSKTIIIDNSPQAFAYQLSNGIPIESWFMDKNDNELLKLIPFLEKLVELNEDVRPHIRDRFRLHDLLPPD
UniProt Q04724: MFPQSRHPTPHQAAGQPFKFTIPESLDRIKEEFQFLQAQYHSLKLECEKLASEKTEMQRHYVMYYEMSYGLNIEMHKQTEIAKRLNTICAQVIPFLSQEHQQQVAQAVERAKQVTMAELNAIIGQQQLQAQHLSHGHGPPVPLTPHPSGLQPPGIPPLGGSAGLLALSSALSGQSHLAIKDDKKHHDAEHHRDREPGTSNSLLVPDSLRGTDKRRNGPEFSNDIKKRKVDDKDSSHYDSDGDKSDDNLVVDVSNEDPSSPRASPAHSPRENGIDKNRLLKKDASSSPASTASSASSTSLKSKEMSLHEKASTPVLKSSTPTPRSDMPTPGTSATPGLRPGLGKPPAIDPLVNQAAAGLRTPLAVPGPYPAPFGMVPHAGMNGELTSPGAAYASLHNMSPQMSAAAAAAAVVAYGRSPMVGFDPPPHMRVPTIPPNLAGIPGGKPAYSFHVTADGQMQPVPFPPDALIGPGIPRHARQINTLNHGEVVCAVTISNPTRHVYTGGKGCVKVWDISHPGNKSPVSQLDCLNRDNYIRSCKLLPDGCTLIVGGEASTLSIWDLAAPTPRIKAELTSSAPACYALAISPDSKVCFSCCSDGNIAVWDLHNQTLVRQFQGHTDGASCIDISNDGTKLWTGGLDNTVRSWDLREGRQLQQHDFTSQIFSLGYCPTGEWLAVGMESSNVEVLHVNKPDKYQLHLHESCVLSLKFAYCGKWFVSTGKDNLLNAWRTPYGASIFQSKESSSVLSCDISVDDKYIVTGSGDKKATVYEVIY
UniProt P61225: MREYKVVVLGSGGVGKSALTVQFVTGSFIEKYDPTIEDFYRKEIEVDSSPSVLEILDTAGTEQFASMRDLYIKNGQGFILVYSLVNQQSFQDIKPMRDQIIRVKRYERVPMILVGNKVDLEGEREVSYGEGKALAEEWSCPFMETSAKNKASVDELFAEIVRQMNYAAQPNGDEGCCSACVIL
UniProt P61968: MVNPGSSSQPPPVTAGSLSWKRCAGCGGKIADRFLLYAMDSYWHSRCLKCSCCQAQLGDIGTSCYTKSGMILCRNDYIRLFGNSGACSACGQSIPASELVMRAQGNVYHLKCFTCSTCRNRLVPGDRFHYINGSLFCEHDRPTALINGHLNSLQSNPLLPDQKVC
UniProt Q00765: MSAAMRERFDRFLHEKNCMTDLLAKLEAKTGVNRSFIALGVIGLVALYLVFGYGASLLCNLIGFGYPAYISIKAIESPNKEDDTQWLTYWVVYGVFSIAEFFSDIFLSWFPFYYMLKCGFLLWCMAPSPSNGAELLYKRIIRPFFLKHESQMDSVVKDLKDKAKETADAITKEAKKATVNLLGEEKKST
UniProt P62195, whole entry: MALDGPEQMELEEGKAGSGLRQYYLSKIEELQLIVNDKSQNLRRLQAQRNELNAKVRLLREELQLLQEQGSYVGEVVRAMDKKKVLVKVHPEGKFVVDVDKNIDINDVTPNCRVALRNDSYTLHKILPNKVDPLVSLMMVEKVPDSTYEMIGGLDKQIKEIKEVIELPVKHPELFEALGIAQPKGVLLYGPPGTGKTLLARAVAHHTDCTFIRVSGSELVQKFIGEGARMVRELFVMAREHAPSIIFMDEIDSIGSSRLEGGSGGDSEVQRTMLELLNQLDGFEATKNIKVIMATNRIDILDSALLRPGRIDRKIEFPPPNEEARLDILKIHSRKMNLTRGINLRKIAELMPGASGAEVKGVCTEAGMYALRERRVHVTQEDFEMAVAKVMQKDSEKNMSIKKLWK
UniProt Q04446: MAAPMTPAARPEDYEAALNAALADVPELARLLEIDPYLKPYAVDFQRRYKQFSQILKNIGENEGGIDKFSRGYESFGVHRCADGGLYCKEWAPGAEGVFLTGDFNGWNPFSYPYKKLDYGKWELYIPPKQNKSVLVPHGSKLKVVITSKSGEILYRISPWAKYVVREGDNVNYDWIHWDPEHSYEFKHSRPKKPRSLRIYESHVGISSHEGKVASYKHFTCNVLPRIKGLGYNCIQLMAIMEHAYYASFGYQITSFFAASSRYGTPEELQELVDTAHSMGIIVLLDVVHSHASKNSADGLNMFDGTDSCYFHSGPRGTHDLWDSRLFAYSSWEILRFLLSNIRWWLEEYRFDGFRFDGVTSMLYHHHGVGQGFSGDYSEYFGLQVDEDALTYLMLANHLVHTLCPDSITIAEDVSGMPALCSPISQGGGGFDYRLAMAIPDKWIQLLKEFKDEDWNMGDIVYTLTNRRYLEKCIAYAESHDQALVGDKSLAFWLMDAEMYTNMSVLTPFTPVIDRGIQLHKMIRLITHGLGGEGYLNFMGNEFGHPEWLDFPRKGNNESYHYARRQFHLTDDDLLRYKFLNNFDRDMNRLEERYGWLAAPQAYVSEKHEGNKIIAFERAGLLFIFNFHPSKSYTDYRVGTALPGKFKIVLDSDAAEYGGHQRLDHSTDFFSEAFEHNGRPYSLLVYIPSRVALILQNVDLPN
UniProt P82909: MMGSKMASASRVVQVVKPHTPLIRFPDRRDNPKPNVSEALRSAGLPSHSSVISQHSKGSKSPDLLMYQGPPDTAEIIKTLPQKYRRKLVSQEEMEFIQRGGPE
UniProt P56385: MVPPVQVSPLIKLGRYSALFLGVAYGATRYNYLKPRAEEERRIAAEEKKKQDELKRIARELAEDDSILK

Compound: Nc1ncnc2c1ncn2[C@@H]1O[C@H](COP(=O)(O)OP(=O)(O)NP(=O)(O)O)[C@@H](O)[C@H]1O [adenylyl imidodiphosphate]
Assay: NP40-soluble protein abundance relative to vehicle (solubility fold change) (ratio); higher = more soluble protein in presence of AMP-PNP
How it was run: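 Crude Jurkat lysate, prepared by Dounce homogenisation, was exposed to eight concentrations from 0.1 to 10 mM for 10 min at room temperature and then 3 min at 37 °C. Solubilisation used 0.8% NP40 with benzonase for 60 min at 4 °C, followed by ultracentrifugation and TMT labelling of the supernatant for LC-MS/MS. After vsn normalisation of intensities, each value is the fold change against the detergent-processed vehicle within each replicate, across three independent experiments.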

| Target | NP40-soluble protein abundance (concentration: 1mM) | NP40-soluble protein abundance (concentration: 2mM) | NP40-soluble protein abundance (concentration: 4mM) | NP40-soluble protein abundance (concentration: 6mM) | NP40-soluble protein abundance (concentration: 8mM) | NP40-soluble protein abundance (concentration: 10mM) |
| --- | --- | --- | --- | --- | --- | --- |
| UniProt P60763 | 1.05 ± 0.035 | 0.957 ± 0.082 | 0.978 ± 0.062 | 1.01 ± 0.063 | 1.03 ± 0.058 | 1.02 ± 0.1 |
| GRB2 (UniProt P62993) | 0.985 ± 0.035 | 0.943 ± 0.046 | 0.946 ± 0.023 | 0.972 ± 0.01 | 0.944 ± 0.037 | 0.918 ± 0.024 |
| RPL7A (UniProt P62424) | 0.961 ± 0.065 | 0.94 ± 0.017 | 0.946 ± 0.12 | 0.905 ± 0.1 | 0.818 ± 0.055 | 0.916 ± 0.16 |
| UniProt Q01105-2 | 0.874 ± 0.16 | 1.03 ± 0.029 | 0.847 ± 0.2 | 0.885 ± 0.12 | 0.892 ± 0.083 | 0.875 ± 0.14 |
| PITPNA (UniProt Q00169) | 0.9785 ± 0.0089 | 0.941 ± 0.056 | 0.9348 ± 0.0059 | 0.9615 ± 0.0058 | 0.9372 ± 0.009 | 0.953 ± 0.032 |
| HDAC4 (UniProt P56524) | 0.9823 ± 0.0059 | 1.01 ± 0.024 | 1 ± 0.037 | 0.977 ± 0.011 | 0.958 ± 0.024 | 0.986 ± 0.011 |
| UniProt Q06124-2 | 0.989 ± 0.026 | 0.964 ± 0.011 | 0.9948 ± 0.0029 | 0.989 ± 0.033 | 1 ± 0.037 | 0.991 ± 0.034 |
| UniProt P62877 | 0.968 ± 0.042 | 0.99 ± 0.043 | 0.972 ± 0.069 | 1.02 ± 0.065 | 1.01 ± 0.035 | 1.03 ± 0.075 |
| UniProt P57081 and related entries | 0.93 ± 0.01 | 0.899 ± 0.056 | 0.9607 ± 0.0045 | 0.9953 ± 0.0047 | 0.977 ± 0.025 | 0.976 ± 0.017 |
| PFKP (UniProt Q01813) | 0.969 ± 0.021 | 0.902 ± 0.11 | 0.963 ± 0.037 | 1.01 ± 0.025 | 1.04 ± 0.019 | 1.01 ± 0.054 |
| PPP1CA (UniProt P62136) | 1.017 ± 0.0096 | 0.963 ± 0.08 | 0.986 ± 0.041 | 0.9945 ± 0.0053 | 0.994 ± 0.049 | 0.976 ± 0.044 |
| UniProt P61221 | 0.886 ± 0.032 | 0.803 ± 0.058 | 0.8639 ± 0.0073 | 0.896 ± 0.03 | 0.931 ± 0.011 | 0.903 ± 0.016 |
| MRPS10 (UniProt P82664) | 1.03 ± 0.032 | 1.02 ± 0.069 | 1.01 ± 0.06 | 0.987 ± 0.049 | 0.999 ± 0.077 | 0.965 ± 0.059 |
| CTDSPL2 (UniProt Q05D32) | 1.02 ± 0.014 | 1.06 ± 0.036 | 1.067 ± 0.0076 | 1.08 ± 0.037 | 1.09 ± 0.039 | 1.15 ± 0.035 |
| UniProt Q04724 and related entries | 0.971 ± 0.024 | 1.04 ± 0.053 | 1.02 ± 0.035 | 0.982 ± 0.051 | 0.9569 ± 0.0015 | 0.964 ± 0.023 |
| UniProt P61225 | 0.925 ± 0.01 | 0.863 ± 0.098 | 0.914 ± 0.021 | 0.897 ± 0.015 | 0.898 ± 0.012 | 0.862 ± 0.041 |
| UniProt Q05655 | 1.02 ± 0.025 | 0.979 ± 0.024 | 1.02 ± 0.013 | 1.04 ± 0.022 | 1.034 ± 0.002 | 1.065 ± 0.002 |
| LMO4 (UniProt P61968) | 0.977 ± 0.034 | 1.03 ± 0.09 | 1 ± 0.058 | 1.06 ± 0.052 | 1.05 ± 0.039 | 1.08 ± 0.031 |
| UniProt Q01968 and related entries | 1.01 ± 0.044 | 0.968 ± 0.067 | 1.01 ± 0.075 | 0.994 ± 0.057 | 0.993 ± 0.062 | 0.989 ± 0.037 |
| REEP5 (UniProt Q00765) | 1.02 ± 0.034 | 1.04 ± 0.032 | 0.954 ± 0.043 | 0.99 ± 0.051 | 0.968 ± 0.046 | 0.969 ± 0.076 |
| UniProt P61956 | 1.02 ± 0.025 | 1.03 ± 0.024 | 0.962 ± 0.02 | 0.916 ± 0.063 | 0.902 ± 0.045 | 0.877 ± 0.048 |
| UniProt P62195 | 0.892 ± 0.068 | 0.86 ± 0.064 | 0.887 ± 0.12 | 0.92 ± 0.053 | 0.932 ± 0.055 | 0.917 ± 0.12 |
| UniProt Q02750 | 1.028 ± 0.0098 | 0.977 ± 0.038 | 0.966 ± 0.037 | 1.08 ± 0.051 | 1.05 ± 0.093 | 1.08 ± 0.052 |
| GBE1 (UniProt Q04446) | 0.966 ± 0.039 | 0.918 ± 0.043 | 0.956 ± 0.011 | 0.956 ± 0.046 | 0.955 ± 0.044 | 0.905 ± 0.03 |
| MRPS36 (UniProt P82909) | 1.01 ± 0.027 | 1 ± 0.023 | 1.01 ± 0.035 | 0.973 ± 0.046 | 0.977 ± 0.031 | 1.01 ± 0.026 |
| UniProt P56385 | 0.875 ± 0.046 | 1.02 ± 0.052 | 0.803 ± 0.071 | 0.865 ± 0.059 | 0.743 ± 0.03 | 0.835 ± 0.057 |
| UniProt P62805 | 0.903 ± 0.073 | 0.951 ± 0.018 | 0.964 ± 0.046 | 1.12 ± 0.18 | 1.25 ± 0.16 | 1.52 ± 0.25 |
| UniProt P62249 | 0.995 ± 0.061 | 0.929 ± 0.1 | 0.962 ± 0.12 | 0.891 ± 0.079 | 0.858 ± 0.056 | 0.915 ± 0.13 |
| UniProt P63000 and related entries | 0.958 ± 0.038 | 0.929 ± 0.088 | 0.901 ± 0.085 | 0.945 ± 0.047 | 0.942 ± 0.021 | 0.919 ± 0.047 |
| UniProt P62913 and related entries | 0.991 ± 0.085 | 0.968 ± 0.056 | 0.916 ± 0.068 | 0.909 ± 0.084 | 0.845 ± 0.035 | 0.96 ± 0.15 |

A stretch from the list above:

| Target | NP40-soluble protein abundance (concentration: 1mM) | NP40-soluble protein abundance (concentration: 2mM) | NP40-soluble protein abundance (concentration: 4mM) | NP40-soluble protein abundance (concentration: 6mM) | NP40-soluble protein abundance (concentration: 8mM) | NP40-soluble protein abundance (concentration: 10mM) |
| --- | --- | --- | --- | --- | --- | --- |
| REEP5 (UniProt Q00765) | 1.02 ± 0.034 | 1.04 ± 0.032 | 0.954 ± 0.043 | 0.99 ± 0.051 | 0.968 ± 0.046 | 0.969 ± 0.076 |
| UniProt P61956 | 1.02 ± 0.025 | 1.03 ± 0.024 | 0.962 ± 0.02 | 0.916 ± 0.063 | 0.902 ± 0.045 | 0.877 ± 0.048 |
| UniProt P62195 | 0.892 ± 0.068 | 0.86 ± 0.064 | 0.887 ± 0.12 | 0.92 ± 0.053 | 0.932 ± 0.055 | 0.917 ± 0.12 |
| UniProt Q02750 | 1.028 ± 0.0098 | 0.977 ± 0.038 | 0.966 ± 0.037 | 1.08 ± 0.051 | 1.05 ± 0.093 | 1.08 ± 0.052 |
| GBE1 (UniProt Q04446) | 0.966 ± 0.039 | 0.918 ± 0.043 | 0.956 ± 0.011 | 0.956 ± 0.046 | 0.955 ± 0.044 | 0.905 ± 0.03 |
| MRPS36 (UniProt P82909) | 1.01 ± 0.027 | 1 ± 0.023 | 1.01 ± 0.035 | 0.973 ± 0.046 | 0.977 ± 0.031 | 1.01 ± 0.026 |
